Measurements reported in PubChem BioAssay AID1259405 (NCATS, 2018)
The deposit covers about 50,000 reagents; this is a random part of them. Of all reagents, about 4,000 (8%) are marked active. 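Mouse siRNA library applied to hamster cells; one well for each siRNA.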 Reagents against one gene are numbered here.

- Purpose: 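Knock-downs that lift recombinant protein yield in hamster ovary cells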 (primary screen)
- System: Chinese hamster CHO-K1 ovary cells with stable secreted eGFP expression
- Reagent: single siRNA against mouse genes, 0.8 pmol siRNA per well (2 µl of 400 nM stock)
- Duration: 3 days
- Read-out: 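Per-well intracellular GFP measured by laser scanning cytometry, plus viability from ATP luminescence, each relative to plate median of non-targeting control wells, in %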
- Reading the numbers: GFP, % of control: higher = more GFP per well, higher productivity; viability (ATP), % of control: higher = more viable cells (more ATP)
- Rule for the call: 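a knock-down is called active if GFP reaches 120% or more of non-targeting control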

target gene | reagent no. | GFP, % of control | viability (ATP), % of control | outcome
Lrba | 1 | 55.3 | 50.5 | inactive
Lrba | 2 | 71.8 | 85.3 | inactive
Lrba | 3 | 102 | 67.3 | inactive
Lce1e | 1 | 75.2 | 76.9 | inactive
Lce1e | 2 | 111 | 74.9 | inactive
Lce1e | 3 | 81.2 | 65.6 | inactive
Fhl3 | 1 | 58.8 | 69.3 | inactive
Fhl3 | 2 | 80.4 | 85.2 | inactive
Add3 | 1 | 37.7 | 46.7 | inactive
Add3 | 2 | 71.3 | 67.9 | inactive
Add3 | 3 | 12.6 | 18.6 | inactive
Fkbp7 | 1 | 58.2 | 86 | inactive
Fkbp7 | 2 | 51.9 | 45.6 | inactive
Fkbp7 | 3 | 134 | 65.4 | active
Eml6 | 1 | 77.6 | 62.9 | inactive
Eml6 | 2 | 74 | 82.3 | inactive
Eml6 | 3 | 128 | 121 | active
Nek6 | 1 | 50.6 | 62 | inactive
Dpp3 | 1 | 99.6 | 83.4 | inactive
Dpp3 | 2 | 84.2 | 60.8 | inactive
Dpp3 | 3 | 64.7 | 70.5 | inactive
Plbd1 | 1 | 98.8 | 71 | inactive
Plbd1 | 2 | 99.9 | 100 | inactive
Plbd1 | 3 | 72.7 | 53.7 | inactive
Srrm4 | 1 | 69.2 | 65.3 | inactive
Srrm4 | 2 | 80.5 | 83.3 | inactive
Srrm4 | 3 | 60.8 | 17.2 | inactive
4833439L19Rik | 1 | 61.4 | 74.6 | inactive
4833439L19Rik | 2 | 80.9 | 72.4 | inactive
4833439L19Rik | 3 | 76.6 | 69.9 | inactive
Ndufs6 | 1 | 72.7 | 85.7 | inactive
Ndufs6 | 2 | 112 | 95.1 | inactive
Ndufs6 | 3 | 87.6 | 55.2 | inactive
Tbc1d22a | 1 | 98.4 | 106 | inactive
Tbc1d22a | 2 | 72.7 | 82.6 | inactive
Tbc1d22a | 3 | 70.7 | 53.4 | inactive
Fbln2 | 1 | 104 | 68.5 | inactive
Fbln2 | 2 | 115 | 101 | inactive
Fbln2 | 3 | 118 | 63 | inactive
Igdcc4 | 1 | 58 | 26.5 | inactive
Igdcc4 | 2 | 70 | 69.1 | inactive
Igdcc4 | 3 | 82.2 | 98.1 | inactive
Prdm9 | 1 | 52.6 | 57.1 | inactive
Prdm9 | 2 | 75 | 70 | inactive
Prdm9 | 3 | 90.9 | 83.9 | inactive
Obsl1 | 1 | 59 | 62.9 | inactive
Obsl1 | 2 | 63.1 | 88.8 | inactive
Obsl1 | 3 | 83.1 | 74.3 | inactive
Nr4a3 | 1 | 34.6 | 44.3 | inactive
Nr4a3 | 2 | 79.1 | 59.3 | inactive
Nr4a3 | 3 | 56.6 | 36.3 | inactive
Nudt12 | 1 | 71.9 | 52.4 | inactive
Nudt12 | 2 | 79.4 | 77.8 | inactive
Nudt12 | 3 | 92.3 | 81.8 | inactive
Gga2 | 1 | 88.7 | 61.5 | inactive
Gga2 | 2 | 96.5 | 83 | inactive
Gga2 | 3 | 96.1 | 72.6 | inactive
